Source: article PMC7280511
Results are given in words; binding and its absence hold for the method and conditions named. In cells and extracts the contact can be indirect. Some entries that bind do so weakly or less than the wild type.

Amino acid sequences for entries named in this document (tags omitted). Residues count along the entry.
UniProt P35579, residues 842-1921: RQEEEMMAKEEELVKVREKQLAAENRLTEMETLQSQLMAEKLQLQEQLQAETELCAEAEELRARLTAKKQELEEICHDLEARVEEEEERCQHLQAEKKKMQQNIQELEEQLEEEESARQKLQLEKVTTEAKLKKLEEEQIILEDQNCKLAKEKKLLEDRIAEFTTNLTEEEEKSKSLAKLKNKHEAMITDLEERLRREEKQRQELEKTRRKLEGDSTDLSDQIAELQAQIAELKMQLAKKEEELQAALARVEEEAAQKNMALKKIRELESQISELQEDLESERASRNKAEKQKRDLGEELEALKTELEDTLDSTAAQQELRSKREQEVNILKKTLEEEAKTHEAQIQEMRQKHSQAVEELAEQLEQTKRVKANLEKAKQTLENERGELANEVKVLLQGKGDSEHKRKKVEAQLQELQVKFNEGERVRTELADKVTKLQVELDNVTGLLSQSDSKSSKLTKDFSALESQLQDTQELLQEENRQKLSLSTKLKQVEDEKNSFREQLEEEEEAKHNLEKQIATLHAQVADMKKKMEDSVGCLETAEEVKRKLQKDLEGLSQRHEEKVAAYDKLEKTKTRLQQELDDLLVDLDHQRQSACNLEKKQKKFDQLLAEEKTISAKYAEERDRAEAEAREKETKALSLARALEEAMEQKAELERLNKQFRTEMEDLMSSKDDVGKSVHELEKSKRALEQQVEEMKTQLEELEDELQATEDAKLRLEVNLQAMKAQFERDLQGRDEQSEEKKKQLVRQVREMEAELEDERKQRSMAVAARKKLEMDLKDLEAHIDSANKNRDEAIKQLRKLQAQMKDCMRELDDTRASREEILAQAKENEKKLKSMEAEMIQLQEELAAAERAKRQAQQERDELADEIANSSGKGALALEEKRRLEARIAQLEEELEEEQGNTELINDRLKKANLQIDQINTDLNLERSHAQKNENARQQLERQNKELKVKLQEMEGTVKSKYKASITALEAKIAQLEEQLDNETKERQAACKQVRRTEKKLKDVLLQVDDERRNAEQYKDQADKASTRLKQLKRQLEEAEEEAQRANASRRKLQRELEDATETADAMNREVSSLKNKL
UniProt Q62812: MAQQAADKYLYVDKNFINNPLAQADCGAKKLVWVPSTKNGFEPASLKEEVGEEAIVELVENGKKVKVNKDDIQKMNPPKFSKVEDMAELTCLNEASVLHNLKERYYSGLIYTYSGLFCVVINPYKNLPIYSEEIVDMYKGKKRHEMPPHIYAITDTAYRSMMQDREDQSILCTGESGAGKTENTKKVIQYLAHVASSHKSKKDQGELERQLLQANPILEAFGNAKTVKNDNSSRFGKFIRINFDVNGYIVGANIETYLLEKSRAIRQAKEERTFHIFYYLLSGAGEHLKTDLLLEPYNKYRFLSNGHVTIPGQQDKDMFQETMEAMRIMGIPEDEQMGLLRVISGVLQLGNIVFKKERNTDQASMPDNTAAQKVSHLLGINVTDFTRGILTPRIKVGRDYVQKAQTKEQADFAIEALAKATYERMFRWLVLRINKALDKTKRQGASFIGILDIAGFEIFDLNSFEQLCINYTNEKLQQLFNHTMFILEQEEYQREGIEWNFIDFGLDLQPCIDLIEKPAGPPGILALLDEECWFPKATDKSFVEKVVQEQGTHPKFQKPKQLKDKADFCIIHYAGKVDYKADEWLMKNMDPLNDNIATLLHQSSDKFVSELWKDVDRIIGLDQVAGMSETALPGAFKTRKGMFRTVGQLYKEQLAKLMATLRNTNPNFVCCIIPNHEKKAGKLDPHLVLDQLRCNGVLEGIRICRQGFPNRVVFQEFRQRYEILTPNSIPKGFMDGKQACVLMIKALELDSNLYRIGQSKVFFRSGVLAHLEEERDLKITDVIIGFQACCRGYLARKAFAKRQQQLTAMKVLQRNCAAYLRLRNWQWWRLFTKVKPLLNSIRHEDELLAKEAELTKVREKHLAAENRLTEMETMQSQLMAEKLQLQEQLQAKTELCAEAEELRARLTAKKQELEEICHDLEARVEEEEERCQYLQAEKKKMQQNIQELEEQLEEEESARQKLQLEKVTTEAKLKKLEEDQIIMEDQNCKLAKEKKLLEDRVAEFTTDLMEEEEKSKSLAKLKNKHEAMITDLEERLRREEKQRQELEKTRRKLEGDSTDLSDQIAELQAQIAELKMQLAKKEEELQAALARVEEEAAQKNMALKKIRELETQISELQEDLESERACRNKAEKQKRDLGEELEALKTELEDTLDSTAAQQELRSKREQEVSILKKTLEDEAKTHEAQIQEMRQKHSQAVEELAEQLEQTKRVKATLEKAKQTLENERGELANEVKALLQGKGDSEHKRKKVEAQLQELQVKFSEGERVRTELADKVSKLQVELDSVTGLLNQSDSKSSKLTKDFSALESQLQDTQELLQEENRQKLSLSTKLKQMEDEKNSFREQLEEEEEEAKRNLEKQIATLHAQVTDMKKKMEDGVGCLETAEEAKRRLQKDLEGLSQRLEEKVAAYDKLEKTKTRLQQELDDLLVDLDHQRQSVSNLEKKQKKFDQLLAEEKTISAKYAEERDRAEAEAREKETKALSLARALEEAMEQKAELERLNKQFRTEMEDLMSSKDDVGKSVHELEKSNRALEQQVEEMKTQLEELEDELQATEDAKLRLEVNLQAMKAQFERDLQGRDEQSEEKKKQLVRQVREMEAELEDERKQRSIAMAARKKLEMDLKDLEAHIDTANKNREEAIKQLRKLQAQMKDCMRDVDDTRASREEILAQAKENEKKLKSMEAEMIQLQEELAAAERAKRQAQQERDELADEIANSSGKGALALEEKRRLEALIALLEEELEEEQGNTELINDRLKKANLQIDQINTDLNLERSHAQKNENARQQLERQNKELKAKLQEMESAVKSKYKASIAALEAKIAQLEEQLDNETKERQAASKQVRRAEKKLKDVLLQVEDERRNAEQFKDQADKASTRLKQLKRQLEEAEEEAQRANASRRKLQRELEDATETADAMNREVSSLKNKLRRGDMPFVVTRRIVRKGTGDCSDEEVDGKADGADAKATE

Experiments:
[1] = molecular target: T1, ATG9A in HEK293T cells (human (endogenous in HEK293T)) (UniProt Q7Z3C6); experiment: co-IP; HEK293T cells transfected with a series of HA-tagged NMMHC IIA fragment plasmids; western blot
T1 sequence: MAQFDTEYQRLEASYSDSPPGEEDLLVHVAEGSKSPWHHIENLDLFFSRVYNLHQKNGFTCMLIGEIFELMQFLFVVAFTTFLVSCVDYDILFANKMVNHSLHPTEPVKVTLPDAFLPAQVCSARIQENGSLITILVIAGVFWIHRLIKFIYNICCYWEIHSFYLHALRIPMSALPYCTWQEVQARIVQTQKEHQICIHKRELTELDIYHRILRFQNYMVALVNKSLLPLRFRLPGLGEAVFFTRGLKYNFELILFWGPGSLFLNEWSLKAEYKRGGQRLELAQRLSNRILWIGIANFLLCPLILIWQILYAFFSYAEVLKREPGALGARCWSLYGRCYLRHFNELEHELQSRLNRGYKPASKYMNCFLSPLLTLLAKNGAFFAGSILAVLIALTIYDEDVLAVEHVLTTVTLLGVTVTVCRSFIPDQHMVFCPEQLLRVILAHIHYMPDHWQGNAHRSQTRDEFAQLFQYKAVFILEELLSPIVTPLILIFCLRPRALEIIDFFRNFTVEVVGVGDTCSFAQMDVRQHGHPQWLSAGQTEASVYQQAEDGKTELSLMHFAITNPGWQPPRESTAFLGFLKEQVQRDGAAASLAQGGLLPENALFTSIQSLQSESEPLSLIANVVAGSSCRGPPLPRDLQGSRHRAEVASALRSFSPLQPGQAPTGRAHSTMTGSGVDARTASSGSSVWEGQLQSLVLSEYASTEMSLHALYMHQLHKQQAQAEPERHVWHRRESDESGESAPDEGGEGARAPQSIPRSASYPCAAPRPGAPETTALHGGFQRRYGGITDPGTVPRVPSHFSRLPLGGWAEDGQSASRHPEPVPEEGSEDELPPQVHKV

[2] = molecular target: T2, autophagy-related gene 9A (ATG9A), endogenous in PC12 cells (rat (endogenous in PC12)) (UniProt Q5FWU3); experiment: proximity ligation; Duolink PLA kit (Sigma-Aldrich) in PC12 cells, primary antibodies to ATG9A and NMMHC IIA; control and OGD/R
T2 sequence: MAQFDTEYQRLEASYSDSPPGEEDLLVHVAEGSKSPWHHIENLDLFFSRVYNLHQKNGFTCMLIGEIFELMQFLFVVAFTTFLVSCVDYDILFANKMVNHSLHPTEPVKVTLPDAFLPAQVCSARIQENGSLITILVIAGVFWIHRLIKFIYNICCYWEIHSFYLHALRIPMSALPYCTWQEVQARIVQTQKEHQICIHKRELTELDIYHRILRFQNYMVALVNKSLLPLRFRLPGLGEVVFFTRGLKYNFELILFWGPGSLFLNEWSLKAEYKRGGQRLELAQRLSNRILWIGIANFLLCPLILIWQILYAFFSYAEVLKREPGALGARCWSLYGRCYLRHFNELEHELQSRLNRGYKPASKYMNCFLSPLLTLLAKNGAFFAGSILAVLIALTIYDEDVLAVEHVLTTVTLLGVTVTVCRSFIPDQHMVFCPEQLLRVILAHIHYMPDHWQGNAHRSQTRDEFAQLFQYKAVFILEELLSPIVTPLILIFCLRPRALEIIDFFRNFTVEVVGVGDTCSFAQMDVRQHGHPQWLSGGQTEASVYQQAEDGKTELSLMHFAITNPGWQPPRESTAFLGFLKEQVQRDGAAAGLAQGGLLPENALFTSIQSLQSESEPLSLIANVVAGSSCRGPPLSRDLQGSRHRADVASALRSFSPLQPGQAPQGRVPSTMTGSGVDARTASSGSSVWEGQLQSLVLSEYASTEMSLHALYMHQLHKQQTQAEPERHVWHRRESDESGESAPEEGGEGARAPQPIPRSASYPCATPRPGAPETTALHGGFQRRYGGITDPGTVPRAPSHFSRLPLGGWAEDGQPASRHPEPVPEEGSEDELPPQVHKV

[3] = molecular target: T2, autophagy-related gene 9A (ATG9A), endogenous in PC12 cells (rat (endogenous in PC12)); experiment: co-IP; PC12 whole-cell lysate (1 ug/uL, RIPA buffer) on antibody bound to Protein A/G PLUS-Agarose, 6 h at 4 °C, washed with RIPA, western blot; cells control or OGD 6 h / reoxygenation 6 h, with or without blebbistatin or cytochalasin D (1 uM); wild-type and NMMHC IIA knockout cells

binding [1] | binding [2] | binding [3] | Substance
binds |  |  | HA-tagged NMMHC IIA tail domain (aa. 842-1921) (from UniProt P35579 842-1921) (domain or fragment)
 | binds | binds | non-muscle myosin heavy-chain IIA (NMMHC IIA), endogenous in PC12 cells (from UniProt Q62812 1-1961)
